Laboratory results taken from article PMC7666215.
No constants are given. Whether binding was seen depends on the method and setting. Some entries that bind do so weakly or less than the wild type.

Chains of the proteins cited; added tags and fusions are not shown.
UniProt Q86WJ1: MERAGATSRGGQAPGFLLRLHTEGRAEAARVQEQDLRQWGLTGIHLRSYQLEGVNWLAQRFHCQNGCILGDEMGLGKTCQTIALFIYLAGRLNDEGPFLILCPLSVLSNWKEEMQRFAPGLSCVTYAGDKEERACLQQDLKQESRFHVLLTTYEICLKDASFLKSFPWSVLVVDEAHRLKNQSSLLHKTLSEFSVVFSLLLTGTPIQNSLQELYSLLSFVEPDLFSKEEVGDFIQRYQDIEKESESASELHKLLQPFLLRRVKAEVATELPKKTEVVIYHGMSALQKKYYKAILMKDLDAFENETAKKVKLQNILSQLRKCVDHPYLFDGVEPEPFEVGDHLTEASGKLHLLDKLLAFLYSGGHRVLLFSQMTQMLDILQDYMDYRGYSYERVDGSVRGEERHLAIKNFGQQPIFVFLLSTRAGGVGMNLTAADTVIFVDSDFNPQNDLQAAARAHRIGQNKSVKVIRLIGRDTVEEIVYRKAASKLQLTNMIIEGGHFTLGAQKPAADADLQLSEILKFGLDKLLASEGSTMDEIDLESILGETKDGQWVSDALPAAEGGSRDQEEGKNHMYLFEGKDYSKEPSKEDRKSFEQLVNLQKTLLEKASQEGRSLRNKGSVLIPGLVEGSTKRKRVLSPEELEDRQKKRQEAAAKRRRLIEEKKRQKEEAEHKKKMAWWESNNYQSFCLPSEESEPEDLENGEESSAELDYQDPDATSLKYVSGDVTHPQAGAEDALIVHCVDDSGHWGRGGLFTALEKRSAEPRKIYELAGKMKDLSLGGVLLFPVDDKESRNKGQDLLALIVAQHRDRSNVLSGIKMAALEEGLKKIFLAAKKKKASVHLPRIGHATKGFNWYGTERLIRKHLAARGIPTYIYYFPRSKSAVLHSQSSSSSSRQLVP
UniProt P09874: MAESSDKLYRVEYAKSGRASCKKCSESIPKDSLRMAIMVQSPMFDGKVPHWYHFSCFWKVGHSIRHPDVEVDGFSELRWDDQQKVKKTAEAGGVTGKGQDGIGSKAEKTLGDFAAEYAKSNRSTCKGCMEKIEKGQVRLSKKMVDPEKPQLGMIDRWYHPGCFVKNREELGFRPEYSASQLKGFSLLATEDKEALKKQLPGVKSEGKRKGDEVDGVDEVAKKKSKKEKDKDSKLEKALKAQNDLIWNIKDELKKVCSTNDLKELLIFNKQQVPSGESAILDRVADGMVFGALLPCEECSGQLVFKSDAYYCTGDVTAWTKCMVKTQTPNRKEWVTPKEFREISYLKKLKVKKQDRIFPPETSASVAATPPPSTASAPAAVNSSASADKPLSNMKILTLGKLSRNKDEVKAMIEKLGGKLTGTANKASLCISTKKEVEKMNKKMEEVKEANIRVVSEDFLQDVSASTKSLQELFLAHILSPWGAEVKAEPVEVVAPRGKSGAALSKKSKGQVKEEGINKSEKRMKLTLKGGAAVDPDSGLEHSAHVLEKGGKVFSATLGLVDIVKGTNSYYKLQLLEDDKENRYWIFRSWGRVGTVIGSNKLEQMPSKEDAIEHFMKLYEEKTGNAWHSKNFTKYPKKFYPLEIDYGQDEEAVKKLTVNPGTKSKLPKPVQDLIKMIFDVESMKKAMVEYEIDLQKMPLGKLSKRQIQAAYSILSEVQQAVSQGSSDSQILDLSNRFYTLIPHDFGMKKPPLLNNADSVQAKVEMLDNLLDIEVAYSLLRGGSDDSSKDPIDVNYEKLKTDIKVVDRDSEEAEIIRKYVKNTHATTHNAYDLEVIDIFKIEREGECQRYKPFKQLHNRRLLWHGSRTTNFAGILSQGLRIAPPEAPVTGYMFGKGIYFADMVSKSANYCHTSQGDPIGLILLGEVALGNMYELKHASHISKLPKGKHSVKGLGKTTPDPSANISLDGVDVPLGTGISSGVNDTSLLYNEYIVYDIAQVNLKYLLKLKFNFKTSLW

Target: GFP–ALC1 (UniProt Q86WJ1)
Experiment: fluorescence three-hybrid assay; GFP-tagged protein tethered to a genomic LacO array by a LacI-GFP trap in U2OS-2B2 cells expressing mCherry-PARP1; Hoechst sensitisation, 405 nm micro-irradiation; mCherry signal at the array pre and 60 s post damage

**Q.** With “PARylated mCherry-PARP1 (from UniProt P09874 1-1014)” as the substance, how does the binding read?
**A.** The binding was “binds”.
